{"source": "patent US12540150B1", "about": "“Fluorogenic probe using a Mislow-Evans rearrangement for real-time imaging of hydrogen peroxide” (University of Pittsburgh—Of the Commonwealth System of …, priority 2020, dated 2026)", "conditions": "5% MeCN in 50 mM pH 7.5 HEPES buffer", "data": [{"smiles": "O=c1ccc2c(-c3ccccc3CO)c3ccc(O)cc3oc-2c1", "note": "[Compound 5]", "values": [{"measurement": "Calibration curve 1/slope", "value": "2.54E−06"}, {"measurement": "Calibration curve slope (best-fit)", "setting": "200 μL, n=2", "value": "393445 ± 2396"}]}]}
